Experimental data taken from patent publication US20060165670A1, “Synbiotic combination” (priority 2003, published 2006).
For at least one compound, name, drawing or mass did not settle the structure.

Legend:
[1] = test system: predominant groups of gut bacteria; assay: Continuous culture chemostat with faecal inocula and antimicrobials; format: cell-based; conditions: 1 gl^−1 in medium, compared to control chemostats
[2] = test system: Lactobacillus strain NCIMB 41114; assay: Effect of tetracycline on growth of the strain; format: cell-based, Lactobacillus plantarum

## CN(C)[C@@H]1C(O)=C(C(N)=O)C(=O)[C@@]2(O)C(O)=C3C(=O)c4c(O)cccc4[C@@](C)(O)[C@H]3C[C@@H]12 [tetracycline]
[1]
  effect on populations of bacteria: markedly reduce populations of all bacteria tested
[2]
  effect on growth of Lactobacillus strain NCIMB 41114: no effect on growth
